# Values quoted from earlier work in patent publication US8960128B2, “Topical anesthetic composition” (Animal Ethics Pty Ltd, priority 2005, dated 2015).
# Some results were stated once for a whole list of compounds, not compound by compound. At least one compound was matched to its structure with a doubt left. Some ranges recur; such a range may be that of the whole group of compounds.
# Details: usually; agents with a rapid onset of action
smiles,measurement,value
COC(=O)[C@H]1[C@@H](OC(=O)c2ccccc2)C[C@@H]2CC[C@H]1N2C [cocaine],onset of action,5 to 10 min
